From patent US5550110A (Warner-Lambert Company, priority 1994, dated 1996)

Test: general procedure: Boc solid-phase peptide synthesis; PAM or MBHA resin; N-α-Boc-Trp-PAM resin (0.70 meq/g); dicyclohexylcarbodiimide; activated esters or anhydrides of N-alpha-Boc amino ac
Conditions: late stage modification step, RP-HPLC, capillary electrophoresis, TLC, NMR, FAB-MS

PEPTIDE1{[ac].[D-Bhg].L.D.I.I.W}$$$$V2.0
purity (crude or final not stated): 99%

Strings that start with PEPTIDE1 are HELM notation: dots part the residues, brackets hold end groups and non-standard residues.
